No constants are given. Whether binding was seen depends on the method and setting. In cells and extracts the contact can be indirect. Here binding means that the protein was enriched with, or labelled near, the bait; the list need not be complete. Tags and fused reporters may be left off the sequences shown.
B1: TP53BP2 (protein, UniProt Q13625 1-1128)
chain: MMPMFLTVYLSNNEQHFTEVPVTPETICRDVVDLCKEPGESDCHLAEVWCGSERPVADNERMFDVLQRFGSQRNEVRFFLRHERPPGRDIVSGPRSQDPSLKRNGVKVPGEYRRKENGVNSPRMDLTLAELQEMASRQQQQIEAQQQLLATKEQRLKFLKQQDQRQQQQVAEQEKLKRLKEIAENQEAKLKKVRALKGHVEQKRLSNGKLVEEIEQMNNLFQQKQRELVLAVSKVEELTRQLEMLKNGRIDSHHDNQSAVAELDRLYKELQLRNKLNQEQNAKLQQQRECLNKRNSEVAVMDKRVNELRDRLWKKKAALQQKENLPVSSDGNLPQQAASAPSRVAAVGPYIQSSTMPRMPSRPELLVKPALPDGSLVIQASEGPMKIQTLPNMRSGAASQTKGSKIHPVGPDWSPSNADLFPSQGSASVPQSTGNALDQVDDGEVPLREKEKKVRPFSMFDAVDQSNAPPSFGTLRKNQSSEDILRDAQVANKNVAKVPPPVPTKPKQINLPYFGQTNQPPSDIKPDGSSQQLSTVVPSMGTKPKPAGQQPRVLLSPSIPSVGQDQTLSPGSKQESPPAAAVRPFTPQPSKDTLLPPFRKPQTVAASSIYSMYTQQQAPGKNFQQAVQSALTKTHTRGPHFSSVYGKPVIAAAQNQQQHPENIYSNSQGKPGSPEPETEPVSSVQENHENERIPRPLSPTKLLPFLSNPYRNQSDADLEALRKKLSNAPRPLKKRSSITEPEGPNGPNIQKLLYQRTTIAAMETISVPSYPSKSASVTASSESPVEIQNPYLHVEPEKEVVSLVPESLSPEDVGNASTENSDMPAPSPGLDYEPEGVPDNSPNLQNNPEEPNPEAPHVLDVYLEEYPPYPPPPYPSGEPEGPGEDSVSMRPPEITGQVSLPPGKRTNLRKTGSERIAHGMRVKFNPLALLLDSSLEGEFDLVQRIIYEVDDPSLPNDEGITALHNAVCAGHTEIVKFLVQFGVNVNAADSDGWTPLHCAASCNNVQVCKFLVESGAAVFAMTYSDMQTAADKCEEMEEGYTQCSQFLYGVQEKMGIMNKGVIYALWDYEPQNDDELPMKEGDCMTIIHREDEDEIEWWWARLNDKEGYVPRNLLGLYPRIKPRQRSLA
B2: EFHD1 (protein, UniProt Q9BUP0 1-239)
chain: MASEELACKLERRLRREEAEESGPQLAPLGAPAPEPKPEPEPPARAPTASADAELSAQLSRRLDINEGAARPRRCRVFNPYTEFPEFSRRLIKDLESMFKLYDAGRDGFIDLMELKLMMEKLGAPQTHLGLKSMIKEVDEDFDGKLSFREFLLIFHKAAAGELQEDSGLMALAKLSEIDVALEGVKGAKNFFEAKVQALSSASKFEAELKAEQDERKREEEERRLRQAAFQKLKANFNT
B3: SEPT2 (protein, UniProt Q15019 1-361)
chain: MSKQQPTQFINPETPGYVGFANLPNQVHRKSVKKGFEFTLMVVGESGLGKSTLINSLFLTDLYPERVIPGAAEKIERTVQIEASTVEIEERGVKLRLTVVDTPGYGDAINCRDCFKTIISYIDEQFERYLHDESGLNRRHIIDNRVHCCFYFISPFGHGLKPLDVAFMKAIHNKVNIVPVIAKADTLTLKERERLKKRILDEIEEHNIKIYHLPDAESDEDEDFKEQTRLLKASIPFSVVGSNQLIEAKGKKVRGRLYPWGVVEVENPEHNDFLKLRTMLITHMQDLQEVTQDLHYENFRSERLKRGGRKVENEDMNKDQILLEKEAELRRMQEMIARMQAQMQMQMQGGDGDGGALGHHV
B4: MYL12A (protein, UniProt P19105 1-171)
chain: MSSKRTKTKTKKRPQRATSNVFAMFDQSQIQEFKEAFNMIDQNRDGFIDKEDLHDMLASLGKNPTDEYLDAMMNEAPGPINFTMFLTMFGEKLNGTDPEDVIRNAFACFDEEATGTIQEDYLRELLTTMGDRFTDEEVDELYREAPIDKKGNFNYIEFTRILKHGAKDKDD
B5: MAP7D3 (protein, UniProt Q8IWC1 1-876)
chain: MMADGAAAGAGGSPSLRELRARMVAAANEIAKERRKQDVVNRVATHSSNIRSTFKPVIDGSMLKNDIKQRLARERREEKRRQQDANKETQLLEKERKTKLQYEKQMEERQRKLKERKEKEEQRRIAAEEKRHQKDEAQKEKFTAILYRTLERRRLADDYQQKRWSWGGSAMANSESKTANKRSASTEKLEQGTSALIRQMPLSSAGLQNSVAKRKTDKERSSSLNRRDSNLHSSTDKEQAERKPRVTGVTNYVMQYVTVPLRKCTSDELRAVMFPMSTMKIPPQTKVEESPLEKVETPPKASVDAPPQVNVEVFCNTSMEASPKAGVGMAPEVSTDSFPVVSVDVSPVVSTYDSEMSMDASPELSIEALPKVDLETVPKVSIVASPEASLEAPPEVSLEALPEVSVEAAPEGSLEAPPKGSAEVAPKESVKGSPKESMEASPEAMVKASPKTSLEASMEASPKAKARDAPKKSEMDKQALIPIAKKRLSSYTECYKWSSSPENACGLPSPISTNRQIQKNCPPSPLPLISKQSPQTSFPYKIMPIQHTLSVQSASSTVKKKKETVSKTTNRCEALSQRHMIYEESGNKSTAGIMNAEAATKILTELRRLAREQREKEEEERQREEMQQRVIKKSKDMAKEAVGGQAEDHLKLKDGQQQNETKKKKGWLDQEDQEAPLQKGDAKIKAQEEADKRKKEHERIMLQNLQERLERKKRIEEIMKRTRKTDVNASKVTETSSHDIYEEAEADNEESDKDSLNEMFPSAILNGTGSPTKFKMPFNNAKKMTHKLVFLEDGTSQVRKEPKTYFNGDLKNFRQKSMKDTSIQEVVSRPSSKRMTSHTTKTRKADETNTTSRSSAQTKSEGFHDILPKSSDTFRQ
B6: SORBS1/CAP (protein, UniProt Q9BX66 1-1292)
chain: MSSECDGGSKAVMNGLAPGSNGQDKATADPLRARSISAVKIIPVKTVKNASGLVLPTDMDLTKICTGKGAVTLRASSSYRETPSSSPASPQETRQHESKPGLEPEPSSADEWRLSSSADANGNAQPSSLAAKGYRSVHPNLPSDKSQDATSSSAAQPEVIVVPLYLVNTDRGQEGTARPPTPLGPLGCVPTIPATASAASPLTFPTLDDFIPPHLQRWPHHSQPARASGSFAPISQTPPSFSPPPPLVPPAPEDLRRVSEPDLTGAVSSTDSSPLLNEVSSSLIGTDSQAFPSVSKPSSAYPSTTIVNPTIVLLQHNREQQKRLSSLSDPVSERRVGEQDSAPTQEKPTSPGKAIEKRAKDDSRRVVKSTQDLSDVSMDEVGIPLRNTERSKDWYKTMFKQIHKLNRDTPEENPYFPTYKFPELPEIQQTSEEDNPYTPTYQFPASTPSPKSEDDDSDLYSPRYSFSEDTKSPLSVPRSKSEMSYIDGEKVVKRSATLPLPARSSSLKSSSERNDWEPPDKKVDTRKYRAEPKSIYEYQPGKSSVLTNEKMSRDISPEEIDLKNEPWYKFFSELEFGKPPPKKIWDYTPGDCSILPREDRKTNLDKDLSLCQTELEADLEKMETLNKAPSANVPQSSAISPTPEISSETPGYIYSSNFHAVKRESDGAPGDLTSLENERQIYKSVLEGGDIPLQGLSGLKRPSSSASTKDSESPRHFIPADYLESTEEFIRRRHDDKEKLLADQRRLKREQEEADIAARRHTGVIPTHHQFITNERFGDLLNIDDTAKRKSGSEMRPARAKFDFKAQTLKELPLQKGDIVYIYKQIDQNWYEGEHHGRVGIFPRTYIELLPPAEKAQPKKLTPVQVLEYGEAIAKFNFNGDTQVEMSFRKGERITLLRQVDENWYEGRIPGTSRQGIFPITYVDVIKRPLVKNPVDYMDLPFSSSPSRSATASPQFSSHSKLITPAPSSLPHSRRALSPEMHAVTSEWISLTVGVPGRRSLALTPPLPPLPEASIYNTDHLALSPRASPSLSLSLPHLSWSDRPTPRSVASPLALPSPHKTYSLAPTSQASLHMNGDGGVHTPSSGIHQDSFLQLPLGSSDSVISQLSDAFSSQSKRQPWREESGQYERKAERGAGERGPGGPKISKKSCLKPSDVVRCLSTEQRLSDLNTPEESRPGKPLGSAFPGSEAEQTERHRGGEQAGRKAARRGGSQQPQAQQRRVTPDRSQTSQDLFSYQALYSYIPQNDDELELRDGDIVDVMEKCDDGWFVGTSRRTKQFGTFPGNYVKPLYL

Sequences of proteins named here, by UniProt entry; tags and fusion partners are left off.
UniProt P08590: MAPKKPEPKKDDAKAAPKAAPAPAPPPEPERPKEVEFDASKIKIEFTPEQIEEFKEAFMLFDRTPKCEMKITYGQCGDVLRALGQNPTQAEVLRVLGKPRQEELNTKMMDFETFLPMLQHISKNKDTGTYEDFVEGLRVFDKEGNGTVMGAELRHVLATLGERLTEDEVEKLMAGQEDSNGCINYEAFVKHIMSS
UniProt P60660: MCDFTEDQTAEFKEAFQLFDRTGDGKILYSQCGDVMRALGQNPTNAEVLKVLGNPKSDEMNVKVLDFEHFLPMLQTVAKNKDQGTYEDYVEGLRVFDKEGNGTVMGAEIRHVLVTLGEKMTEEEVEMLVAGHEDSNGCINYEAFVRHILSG
UniProt P14649: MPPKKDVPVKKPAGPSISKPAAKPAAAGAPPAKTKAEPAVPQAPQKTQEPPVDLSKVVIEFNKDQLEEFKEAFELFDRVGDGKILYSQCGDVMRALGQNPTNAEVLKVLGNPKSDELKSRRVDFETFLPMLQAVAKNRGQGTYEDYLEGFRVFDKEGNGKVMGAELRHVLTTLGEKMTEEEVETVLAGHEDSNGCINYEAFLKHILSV
UniProt P62136: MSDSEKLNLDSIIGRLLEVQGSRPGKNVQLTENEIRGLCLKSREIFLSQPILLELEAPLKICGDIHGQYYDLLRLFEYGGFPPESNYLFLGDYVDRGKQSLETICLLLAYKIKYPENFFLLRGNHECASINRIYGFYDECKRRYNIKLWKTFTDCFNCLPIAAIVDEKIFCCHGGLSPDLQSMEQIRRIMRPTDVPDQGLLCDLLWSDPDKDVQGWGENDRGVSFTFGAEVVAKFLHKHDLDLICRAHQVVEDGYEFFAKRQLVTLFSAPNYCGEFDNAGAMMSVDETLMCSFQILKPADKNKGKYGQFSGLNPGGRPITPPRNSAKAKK
UniProt Q15154: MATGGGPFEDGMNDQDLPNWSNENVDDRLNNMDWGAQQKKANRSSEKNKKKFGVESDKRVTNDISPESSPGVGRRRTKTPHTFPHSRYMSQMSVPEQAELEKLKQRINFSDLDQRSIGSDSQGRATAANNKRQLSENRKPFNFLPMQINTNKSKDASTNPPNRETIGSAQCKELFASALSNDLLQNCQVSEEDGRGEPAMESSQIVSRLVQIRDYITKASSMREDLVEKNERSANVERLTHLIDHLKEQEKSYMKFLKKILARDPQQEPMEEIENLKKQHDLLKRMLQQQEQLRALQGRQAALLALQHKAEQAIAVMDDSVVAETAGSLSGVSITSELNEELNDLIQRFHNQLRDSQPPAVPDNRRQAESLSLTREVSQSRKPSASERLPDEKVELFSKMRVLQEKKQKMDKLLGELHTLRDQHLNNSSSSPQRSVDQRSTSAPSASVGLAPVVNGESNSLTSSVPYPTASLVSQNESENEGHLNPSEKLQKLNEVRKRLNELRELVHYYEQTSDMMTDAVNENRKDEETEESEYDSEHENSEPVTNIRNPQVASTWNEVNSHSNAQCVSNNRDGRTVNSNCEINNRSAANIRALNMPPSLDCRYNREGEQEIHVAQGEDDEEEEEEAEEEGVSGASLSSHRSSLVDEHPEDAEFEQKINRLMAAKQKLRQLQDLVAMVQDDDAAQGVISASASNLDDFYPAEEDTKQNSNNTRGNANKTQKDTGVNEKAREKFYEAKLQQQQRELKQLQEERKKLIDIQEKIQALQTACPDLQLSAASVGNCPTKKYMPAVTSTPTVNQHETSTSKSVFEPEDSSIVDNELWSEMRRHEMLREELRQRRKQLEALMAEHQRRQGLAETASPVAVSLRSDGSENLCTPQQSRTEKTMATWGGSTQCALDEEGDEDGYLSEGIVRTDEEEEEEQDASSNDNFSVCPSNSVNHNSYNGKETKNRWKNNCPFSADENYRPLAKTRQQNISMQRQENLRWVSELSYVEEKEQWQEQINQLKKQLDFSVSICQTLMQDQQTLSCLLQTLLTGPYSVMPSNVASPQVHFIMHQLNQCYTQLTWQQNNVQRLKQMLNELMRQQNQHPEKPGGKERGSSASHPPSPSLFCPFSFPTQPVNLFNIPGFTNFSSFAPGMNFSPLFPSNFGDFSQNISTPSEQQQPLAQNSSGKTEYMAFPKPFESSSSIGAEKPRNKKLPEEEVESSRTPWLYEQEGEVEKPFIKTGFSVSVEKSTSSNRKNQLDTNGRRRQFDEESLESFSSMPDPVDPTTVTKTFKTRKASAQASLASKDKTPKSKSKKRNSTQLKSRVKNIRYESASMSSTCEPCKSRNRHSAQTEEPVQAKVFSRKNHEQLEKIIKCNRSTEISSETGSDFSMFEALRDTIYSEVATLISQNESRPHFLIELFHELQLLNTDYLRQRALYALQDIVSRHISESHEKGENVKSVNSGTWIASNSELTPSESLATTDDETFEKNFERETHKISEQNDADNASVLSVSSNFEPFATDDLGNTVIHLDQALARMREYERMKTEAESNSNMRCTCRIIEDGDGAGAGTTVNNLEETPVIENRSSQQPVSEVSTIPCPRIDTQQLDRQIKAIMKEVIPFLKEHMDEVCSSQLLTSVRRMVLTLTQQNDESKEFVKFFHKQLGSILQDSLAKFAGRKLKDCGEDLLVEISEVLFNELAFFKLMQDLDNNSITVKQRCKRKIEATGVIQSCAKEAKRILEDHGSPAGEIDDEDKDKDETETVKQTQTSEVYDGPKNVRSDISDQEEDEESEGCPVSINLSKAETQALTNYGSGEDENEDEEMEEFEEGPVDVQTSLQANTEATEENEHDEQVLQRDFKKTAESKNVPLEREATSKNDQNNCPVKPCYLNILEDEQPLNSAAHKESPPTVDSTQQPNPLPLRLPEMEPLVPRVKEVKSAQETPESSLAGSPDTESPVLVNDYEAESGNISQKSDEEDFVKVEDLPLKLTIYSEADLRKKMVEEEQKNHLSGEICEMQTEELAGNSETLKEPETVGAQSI
UniProt O14950: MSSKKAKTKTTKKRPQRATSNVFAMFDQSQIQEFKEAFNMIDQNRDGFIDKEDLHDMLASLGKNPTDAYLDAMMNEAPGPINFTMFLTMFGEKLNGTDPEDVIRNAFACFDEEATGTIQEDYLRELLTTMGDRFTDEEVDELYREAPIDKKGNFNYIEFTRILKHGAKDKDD
UniProt P21333: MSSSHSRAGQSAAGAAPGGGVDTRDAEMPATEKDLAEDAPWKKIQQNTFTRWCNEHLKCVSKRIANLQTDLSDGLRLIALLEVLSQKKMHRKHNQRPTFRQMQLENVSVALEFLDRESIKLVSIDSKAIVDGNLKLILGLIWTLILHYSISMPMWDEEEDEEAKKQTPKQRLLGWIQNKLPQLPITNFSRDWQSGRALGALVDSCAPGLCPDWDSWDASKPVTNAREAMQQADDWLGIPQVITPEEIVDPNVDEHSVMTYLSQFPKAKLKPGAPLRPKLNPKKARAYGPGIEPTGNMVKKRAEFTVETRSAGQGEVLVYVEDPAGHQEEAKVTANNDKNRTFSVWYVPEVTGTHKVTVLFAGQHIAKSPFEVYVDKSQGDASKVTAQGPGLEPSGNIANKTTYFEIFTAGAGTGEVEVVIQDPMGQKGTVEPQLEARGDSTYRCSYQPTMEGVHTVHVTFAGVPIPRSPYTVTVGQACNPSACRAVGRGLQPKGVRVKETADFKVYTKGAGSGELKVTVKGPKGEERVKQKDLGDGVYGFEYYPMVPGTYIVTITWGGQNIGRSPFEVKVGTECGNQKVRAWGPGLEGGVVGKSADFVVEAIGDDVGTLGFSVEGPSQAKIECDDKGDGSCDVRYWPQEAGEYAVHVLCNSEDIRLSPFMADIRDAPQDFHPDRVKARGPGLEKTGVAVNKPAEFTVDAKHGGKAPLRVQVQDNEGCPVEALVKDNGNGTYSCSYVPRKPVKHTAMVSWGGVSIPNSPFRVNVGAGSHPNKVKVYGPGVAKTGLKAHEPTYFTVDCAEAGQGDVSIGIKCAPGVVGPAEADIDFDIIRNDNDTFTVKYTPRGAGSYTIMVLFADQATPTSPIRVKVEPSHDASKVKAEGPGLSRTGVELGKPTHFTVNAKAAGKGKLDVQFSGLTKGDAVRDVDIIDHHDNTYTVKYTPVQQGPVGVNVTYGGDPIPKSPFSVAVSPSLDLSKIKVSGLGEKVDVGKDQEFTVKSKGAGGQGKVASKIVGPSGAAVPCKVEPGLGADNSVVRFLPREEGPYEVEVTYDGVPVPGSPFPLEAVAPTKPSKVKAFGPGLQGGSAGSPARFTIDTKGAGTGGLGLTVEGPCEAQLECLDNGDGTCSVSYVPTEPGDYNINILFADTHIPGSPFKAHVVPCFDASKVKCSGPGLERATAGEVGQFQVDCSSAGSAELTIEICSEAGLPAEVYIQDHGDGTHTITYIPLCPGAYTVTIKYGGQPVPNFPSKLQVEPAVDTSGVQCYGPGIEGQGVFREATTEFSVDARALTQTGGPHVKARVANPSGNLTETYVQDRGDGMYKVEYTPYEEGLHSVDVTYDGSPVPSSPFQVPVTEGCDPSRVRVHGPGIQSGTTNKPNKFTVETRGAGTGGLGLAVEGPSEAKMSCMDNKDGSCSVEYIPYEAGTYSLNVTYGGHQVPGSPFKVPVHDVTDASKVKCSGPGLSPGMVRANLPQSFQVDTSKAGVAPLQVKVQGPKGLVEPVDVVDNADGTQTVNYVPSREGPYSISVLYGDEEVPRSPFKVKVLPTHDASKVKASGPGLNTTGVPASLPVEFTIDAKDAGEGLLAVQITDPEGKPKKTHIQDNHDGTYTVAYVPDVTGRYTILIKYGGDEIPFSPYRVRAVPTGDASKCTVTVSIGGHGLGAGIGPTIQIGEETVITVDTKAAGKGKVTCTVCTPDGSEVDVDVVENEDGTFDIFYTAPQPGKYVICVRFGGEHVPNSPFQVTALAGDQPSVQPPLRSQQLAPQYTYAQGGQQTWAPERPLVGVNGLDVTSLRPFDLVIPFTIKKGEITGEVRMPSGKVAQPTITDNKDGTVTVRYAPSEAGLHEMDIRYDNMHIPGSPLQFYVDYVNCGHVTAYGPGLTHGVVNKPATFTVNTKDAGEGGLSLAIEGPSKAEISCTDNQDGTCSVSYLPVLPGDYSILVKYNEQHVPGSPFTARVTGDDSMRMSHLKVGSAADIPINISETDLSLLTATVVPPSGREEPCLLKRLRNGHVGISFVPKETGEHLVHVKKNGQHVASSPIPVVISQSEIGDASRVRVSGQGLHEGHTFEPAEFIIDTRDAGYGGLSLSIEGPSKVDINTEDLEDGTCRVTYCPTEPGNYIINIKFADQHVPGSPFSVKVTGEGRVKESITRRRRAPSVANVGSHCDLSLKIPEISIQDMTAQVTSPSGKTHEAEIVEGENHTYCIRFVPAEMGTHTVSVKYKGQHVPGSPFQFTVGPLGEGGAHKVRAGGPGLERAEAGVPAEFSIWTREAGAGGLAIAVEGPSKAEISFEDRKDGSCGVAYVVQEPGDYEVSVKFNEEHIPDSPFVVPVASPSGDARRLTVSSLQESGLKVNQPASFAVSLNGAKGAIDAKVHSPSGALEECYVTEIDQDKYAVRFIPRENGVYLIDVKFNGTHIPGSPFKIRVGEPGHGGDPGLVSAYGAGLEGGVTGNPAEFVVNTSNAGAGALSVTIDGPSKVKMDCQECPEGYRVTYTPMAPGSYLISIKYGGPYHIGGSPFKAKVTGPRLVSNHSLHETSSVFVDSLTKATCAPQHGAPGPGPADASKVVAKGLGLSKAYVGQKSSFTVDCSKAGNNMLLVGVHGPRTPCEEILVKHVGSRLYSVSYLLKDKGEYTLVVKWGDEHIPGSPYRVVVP
UniProt Q9UHB6: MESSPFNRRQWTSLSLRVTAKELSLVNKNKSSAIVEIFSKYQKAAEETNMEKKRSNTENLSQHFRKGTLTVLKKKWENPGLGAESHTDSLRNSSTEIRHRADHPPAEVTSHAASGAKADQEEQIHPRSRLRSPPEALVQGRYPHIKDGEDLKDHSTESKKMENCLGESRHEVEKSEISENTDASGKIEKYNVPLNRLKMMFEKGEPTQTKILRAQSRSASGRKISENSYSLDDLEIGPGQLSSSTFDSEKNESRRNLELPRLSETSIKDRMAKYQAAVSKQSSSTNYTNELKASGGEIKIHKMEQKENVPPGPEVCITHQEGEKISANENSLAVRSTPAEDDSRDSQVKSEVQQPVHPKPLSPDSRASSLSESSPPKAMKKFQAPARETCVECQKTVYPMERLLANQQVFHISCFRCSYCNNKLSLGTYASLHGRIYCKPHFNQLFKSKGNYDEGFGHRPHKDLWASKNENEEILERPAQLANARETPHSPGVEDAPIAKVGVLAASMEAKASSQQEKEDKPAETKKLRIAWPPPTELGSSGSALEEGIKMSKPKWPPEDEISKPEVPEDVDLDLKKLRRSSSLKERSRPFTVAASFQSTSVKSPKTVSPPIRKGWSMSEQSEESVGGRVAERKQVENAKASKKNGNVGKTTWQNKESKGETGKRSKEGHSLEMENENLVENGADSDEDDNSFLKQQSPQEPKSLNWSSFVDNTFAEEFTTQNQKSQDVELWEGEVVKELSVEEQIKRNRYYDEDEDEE

biological target: T1, FLAG-BirA*-tagged LUZP1 (human) (UniProt Q86V48); test: proximity labelling
T1 sequence: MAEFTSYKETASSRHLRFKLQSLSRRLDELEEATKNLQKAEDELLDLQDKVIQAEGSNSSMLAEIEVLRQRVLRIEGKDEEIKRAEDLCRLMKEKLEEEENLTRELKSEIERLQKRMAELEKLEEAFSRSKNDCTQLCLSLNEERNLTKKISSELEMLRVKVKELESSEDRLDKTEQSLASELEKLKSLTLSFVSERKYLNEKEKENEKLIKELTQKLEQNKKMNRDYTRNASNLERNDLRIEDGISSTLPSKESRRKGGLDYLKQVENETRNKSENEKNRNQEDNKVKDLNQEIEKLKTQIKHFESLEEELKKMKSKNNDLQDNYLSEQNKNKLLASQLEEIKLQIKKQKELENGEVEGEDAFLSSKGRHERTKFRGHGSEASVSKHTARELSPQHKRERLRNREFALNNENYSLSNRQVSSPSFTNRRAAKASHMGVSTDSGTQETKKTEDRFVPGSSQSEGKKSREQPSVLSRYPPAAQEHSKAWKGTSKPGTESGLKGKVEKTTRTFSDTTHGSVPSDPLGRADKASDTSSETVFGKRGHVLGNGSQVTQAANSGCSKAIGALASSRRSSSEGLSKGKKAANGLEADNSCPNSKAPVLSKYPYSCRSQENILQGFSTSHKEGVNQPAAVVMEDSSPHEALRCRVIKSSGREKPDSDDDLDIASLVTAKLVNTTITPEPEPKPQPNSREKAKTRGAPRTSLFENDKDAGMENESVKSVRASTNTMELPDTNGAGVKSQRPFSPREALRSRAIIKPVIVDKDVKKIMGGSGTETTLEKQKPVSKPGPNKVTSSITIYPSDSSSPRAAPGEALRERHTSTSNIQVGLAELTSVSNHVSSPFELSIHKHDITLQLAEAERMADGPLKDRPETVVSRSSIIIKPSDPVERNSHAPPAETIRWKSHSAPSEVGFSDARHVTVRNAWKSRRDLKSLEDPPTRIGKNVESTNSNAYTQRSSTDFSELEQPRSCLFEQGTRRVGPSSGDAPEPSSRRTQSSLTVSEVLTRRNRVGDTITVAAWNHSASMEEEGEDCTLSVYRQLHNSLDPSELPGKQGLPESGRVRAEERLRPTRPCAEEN

binding, binds:
MYL3 (from UniProt P08590 1-195), MYL6 (from UniProt P60660 1-151), MYL6B (from UniProt P14649 1-208), PPP1CA (from UniProt P62136 1-330), PCM1 (from UniProt Q15154 1-2024), MYL12B (from UniProt O14950 1-172), FLNA (from UniProt P21333 1-2647), TJP1 (from UniProt Q07157 1-1748), FLNB (from UniProt O75369 1-2602), EPLIN/LIMA1 (from UniProt Q9UHB6 1-759), B1, B2, B3, B4, B5, B6
